According to publication PMC5329023:
Results are given in words; binding and its absence hold for the method and conditions named. Binding calls can cover weak binding; strength is not graded here. For some assays here: Binding seen in cells or lysates may run through a third protein.

Tests used:
[1] = biological target: BdPP2CA6 (pGBKT7-BdPP2CA6) (B. distachyon); experiment: two-hybrid; yeast AH109; pGBKT7 bait and pGADT7 prey; growth on SD/-Trp-Leu-His-Ade without exogenous ABA; dilutions 1, 1/10, 1/100
[2] = biological target: BdPP2CA6-YNE (B. distachyon); experiment: split reporter; BiFC; YNE and YCE fusions co-transformed into onion epidermal cells by biolistic method; YFP fluorescence observed 1 day after transformation

binding [1]	binding [2]	Binder
binds		AtSnRK2.3 (in pGADT7) (enzyme, UniProt Q39193 1-361) MDRAPVTTGPLDMPIMHDSDRYDFVKDIGSGNFGVARLMRDKLTKELVAVKYIERGDKIDENVQREIINHRSLRHPNIVRFKEVILTPTHLAIIMEYASGGELYERICNAGRFSEDEARFFFQQLLSGVSYCHSMQICHRDLKLENTLLDGSPAPRLKICDFGYSKSSVLHSQPKSTVGTPAYIAPEVLLRQEYDGKIADVWSCGVTLYVMLVGAYPFEDPEEPRDYRKTIQRILSVKYSIPDDIRISPECCHLISRIFVADPATRISIPEIKTHSWFLKNLPADLMNESNTGSQFQEPEQPMQSLDTIMQIISEATIPAVRNRCLDDFMTDNLDLDDDMDDFDSESEIDIDSSGEIVYAL
	binds	AtSnRK2.3-YCE (enzyme, UniProt Q39193 1-361) MDRAPVTTGPLDMPIMHDSDRYDFVKDIGSGNFGVARLMRDKLTKELVAVKYIERGDKIDENVQREIINHRSLRHPNIVRFKEVILTPTHLAIIMEYASGGELYERICNAGRFSEDEARFFFQQLLSGVSYCHSMQICHRDLKLENTLLDGSPAPRLKICDFGYSKSSVLHSQPKSTVGTPAYIAPEVLLRQEYDGKIADVWSCGVTLYVMLVGAYPFEDPEEPRDYRKTIQRILSVKYSIPDDIRISPECCHLISRIFVADPATRISIPEIKTHSWFLKNLPADLMNESNTGSQFQEPEQPMQSLDTIMQIISEATIPAVRNRCLDDFMTDNLDLDDDMDDFDSESEIDIDSSGEIVYAL
